Laboratory results from article doi:10.1101/2022.09.28.509909.
No constants are given. Whether binding was seen depends on the method and setting. In cells and extracts the contact can be indirect. Some binding calls cover weakened binding; strength is not graded here. Where a sequence is shown, tags or fusion partners need not be part of it.

Sequences of proteins named here, by UniProt entry; tags and fusion partners are left off.
UniProt P46937: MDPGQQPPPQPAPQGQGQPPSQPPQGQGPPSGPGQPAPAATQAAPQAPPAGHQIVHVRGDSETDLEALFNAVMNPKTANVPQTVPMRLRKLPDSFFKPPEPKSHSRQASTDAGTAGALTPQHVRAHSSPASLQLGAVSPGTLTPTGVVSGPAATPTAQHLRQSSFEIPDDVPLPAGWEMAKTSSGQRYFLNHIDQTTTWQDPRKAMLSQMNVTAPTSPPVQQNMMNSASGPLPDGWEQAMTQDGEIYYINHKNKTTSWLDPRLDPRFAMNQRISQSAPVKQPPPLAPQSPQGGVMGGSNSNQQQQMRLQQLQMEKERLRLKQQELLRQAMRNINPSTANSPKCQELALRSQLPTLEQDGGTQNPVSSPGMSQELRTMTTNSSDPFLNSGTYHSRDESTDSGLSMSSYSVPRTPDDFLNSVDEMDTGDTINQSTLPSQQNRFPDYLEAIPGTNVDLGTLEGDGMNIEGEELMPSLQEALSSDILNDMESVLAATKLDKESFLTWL

Molecular target: Flag-YAP1 (Yes-associated protein 1) (UniProt P46937)
Assay: co-IP

- binding: binds
B1: Myc-TFCP2 (Transcription Factor CP2) (protein, UniProt Q12800 1-502)
chain: MAWALKLPLADEVIESGLVQDFDASLSGIGQELGAGAYSMSDVLALPIFKQEESSLPPDNENKILPFQYVLCAATSPAVKLHDETLTYLNQGQSYEIRMLDNRKLGELPEINGKLVKSIFRVVFHDRRLQYTEHQQLEGWRWNRPGDRILDIDIPMSVGIIDPRANPTQLNTVEFLWDPAKRTSVFIQVHCISTEFTMRKHGGEKGVPFRVQIDTFKENENGEYTEHLHSASCQIKVFKPKGADRKQKTDREKMEKRTPHEKEKYQPSYETTILTECSPWPEITYVNNSPSPGFNSSHSSFSLGEGNGSPNHQPEPPPPVTDNLLPTTTPQEAQQWLHRNRFSTFTRLFTNFSGADLLKLTRDDVIQICGPADGIRLFNALKGRMVRPRLTIYVCQESLQLREQQQQQQQQQQKHEDGDSNGTFFVYHAIYLEELTAVELTEKIAQLFSISPCQISQIYKQGPTGIHVLISDEMIQNFQEEACFILDTMKAETNDSYHIILK
